Source: PubChem BioAssay AID504808 (Drosophila RNAi Screening Center, 2011)

Test: 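Genes whose loss lifts activity of an E2F-responsive reporter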 (primary screen)
Cell system: Drosophila S2 cells
Reagents: long dsRNA against Drosophila genes
Detection: 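Dual luciferase plate measurements; E2F-specific signal taken as firefly over Renilla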
Scale: E2F firefly: higher = more E2F reporter activity; Renilla normaliser: higher = more normaliser reporter signal
Active means: 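Called active if the normalised E2F reporter went up by over 50%; the cutoff is arbitrary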
The deposit covers about 21,000 reagents; this is a random part of those that have a named target and a result. In the full data, 18 (0.084%) got an active call. 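Raw counts without plate normalisation, one of two replicates; the ratio scores behind the calls were not deposited.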 Not given: the amount of reagent, the time to read-out.

gene knocked down | DRSC id | E2F firefly, rep 1 | Renilla normaliser, rep 1 | outcome
CG6712 | DRSC02981 | 84979 | 4354 | inactive
CG16868 | DRSC06633 | 71382 | 3568 | inactive
Muc91C | DRSC16297 | 1.49e5 | 7686 | inactive
Gfrl | DRSC15197 | 62557 | 3711 | inactive
Gfrl | DRSC15199 | 1.47e5 | 7911 | inactive
Gfrl | DRSC15565 | 65979 | 3014 | inactive
Gfrl | DRSC15719 | 1.28e5 | 7474 | inactive
Wnt5 | DRSC20300 | 1.43e5 | 5731 | inactive
CG12115 | DRSC17811 | 65345 | 5837 | inactive
CG32036 | DRSC10362 | 72954 | 4031 | inactive
CG1492 | DRSC19605 | 56733 | 4555 | inactive
CG5727 | DRSC02882 | 78034 | 3178 | inactive
CG1233 | DRSC08269 | 77059 | 3359 | inactive
dwg | DRSC18766 | 2007 | 984 | inactive
CG14442 | DRSC17935 | 7034 | 864 | inactive
Rbsn-5 | DRSC03094 | 84884 | 3732 | inactive
SrpRalpha | DRSC20251 | 7675 | 712 | inactive
mats | DRSC13562 | 89210 | 3226 | inactive
mats | DRSC14702 | 77291 | 3848 | inactive
IntS12 | DRSC15818 | 1.66e5 | 7746 | inactive
Rh5 | DRSC03412 | 73456 | 3064 | inactive
CG5267 | DRSC06928 | 1.40e5 | 4866 | inactive
zyd | DRSC20716 | 1.27e5 | 6948 | inactive

4 of these entries, set out differently.
mats [DRSC14702]
- E2F firefly, rep 1: 77291
- Renilla normaliser, rep 1: 3848
- outcome: inactive

IntS12 [DRSC15818]
- E2F firefly, rep 1: 1.66e5
- Renilla normaliser, rep 1: 7746
- outcome: inactive

Rh5 [DRSC03412]
- E2F firefly, rep 1: 73456
- Renilla normaliser, rep 1: 3064
- outcome: inactive

CG5267 [DRSC06928]
- E2F firefly, rep 1: 1.40e5
- Renilla normaliser, rep 1: 4866
- outcome: inactive

Next results:
gene knocked down | DRSC id | E2F firefly, rep 1 | Renilla normaliser, rep 1 | outcome
Obp99b | DRSC16264 | 1.08e5 | 6469 | inactive
Cnx14D | DRSC20214 | 1.43e5 | 6070 | inactive
Prm | DRSC08941 | 1.26e5 | 4730 | inactive
Prm | DRSC08942 | 1.24e5 | 4678 | inactive
Prm | DRSC11255 | 65104 | 3500 | inactive
CG6980 | DRSC16162 | 71966 | 3394 | inactive
CG2656 | DRSC12584 | 70753 | 3866 | inactive
Nazo | DRSC14343 | 1.12e5 | 5671 | inactive
ppk25 | DRSC04973 | 1.45e5 | 5661 | inactive
CG6839 | DRSC10723 | 74028 | 3277 | inactive
CG30016 | DRSC05242 | 1.40e5 | 4734 | inactive
ssp5 | DRSC14955 | 68728 | 3290 | inactive
TTLL5 | DRSC14181 | 76594 | 3194 | inactive
Zip99C | DRSC16320 | 1838 | 940 | inactive
CG4701 | DRSC01952 | 86365 | 4541 | inactive
CG18249 | DRSC15318 | 72300 | 3552 | inactive
RpS19a | DRSC20281 | 84595 | 15745 | inactive
slp2 | DRSC00836 | 1.53e5 | 5190 | inactive
pie | DRSC03590 | 78578 | 3096 | inactive
CG3191 | DRSC18530 | 1883 | 896 | inactive
bib | DRSC03496 | 75714 | 3428 | inactive
Klp64D | DRSC11204 | 92388 | 3683 | inactive
Fen1 | DRSC07415 | 1.43e5 | 5169 | inactive
Pal1 | DRSC06106 | 3278 | 229 | inactive
Nipped-B | DRSC07815 | 1.07e5 | 4081 | inactive
TwdlU | DRSC12224 | 1.23e5 | 5226 | inactive
hid | DRSC11316 | 1.56e5 | 8227 | inactive
CG3544 | DRSC00613 | 71783 | 3358 | inactive
NO66 | DRSC18252 | 1862 | 932 | inactive
spel1 | DRSC03617 | 1.05e5 | 4195 | inactive
CG12069 | DRSC14470 | 1.19e5 | 5974 | inactive
CG9471 | DRSC16499 | 1.32e5 | 6697 | inactive
hlk | DRSC05021 | 98309 | 3344 | inactive
hlk | DRSC05022 | 98907 | 3975 | inactive
